Laboratory results from PubChem BioAssay AID493014 (National Center for Advancing Translational Sciences (NCATS), 2011).
This is one part of the list. The main result of the screen is listed elsewhere. These columns were measured beside it and carry no call. Compounds called inactive in the main read-out are mostly missing here. Words in brackets tell the shape of the fitted curve; partial curves, single points and poor fits give uncertain potencies. Peptide text beside a SMILES is read from it. * marks the point of attachment. Cbz = O=C(OCc1ccccc1)*

Assay: qHTS Assay to Find Inhibitors of Chronic Active B-Cell Receptor Signaling
Conditions: ABC-DLBCL IkBa-CBG/CBR reporter, luminescence ratio (green luciferase fused to IkBa over red control in TMD8 lymphoma cells), 4 h
How it was run: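 Compounds up to 46 uM were incubated four hours with TMD8 cells whose green CBG68 luciferase is fused to IkappaBalpha; red CBR luminescence normalised the signal, and concentration-effect curves were fitted to fusion, red and ratio data.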

[1] = measured here: CBR red luminescence, cell number
[2] = measured here: IkBa-CBG green luminescence

Structure (SMILES)	AC50 [1]	AC50 [2]
COc1cc(/C=C/c2ccc3cccc(OC)c3n2)c(O)c([N+](=O)[O-])c1	0.501 µM [falling, full curve]	–
CC(=O)Nc1ccc(NC(=O)Cc2ccc(F)cc2)cc1	0.794 µM [rising, full curve]	–
CCn1nnnc1Oc1ccc(Cl)cc1	29.1 µM [rising, single point]	–
Cc1cc(C)c(NC(=O)CSc2nc3ccc(NC(=O)CSc4nnnn4-c4ccccc4)cc3s2)c(C)c1	13 µM [rising, partial curve, poor fit]	–
COc1ccc(C(=O)NCCc2c[nH]c3ccccc23)cc1[N+](=O)[O-]	6.31 µM [falling, partial curve]	–
N/C(=N\OC(=O)c1cccc(Br)c1)c1ccccc1	1.41 µM [rising, full curve, poor fit]	–
Cc1cc(C(=O)CSc2nnc(-c3ccco3)o2)c(C)n1C	4.61 µM [rising, full curve, poor fit]	–
O=C(CN1C(=O)c2ccccc2C1=O)NN1C(=O)c2ccccc2C1=O	6.31 µM [falling, partial curve, poor fit]	–
COc1ccccc1C(=O)NC(=O)COC(=O)C1(C)CC1(Cl)Cl (configuration not stated)	0.461 µM [rising, full curve, poor fit]	–
CCCSc1nc(N2CCCC2)c2c(c1C#N)CC(C)(C)OC2	12.6 µM [rising, single point]	–
O=S(=O)(c1ccccc1Br)N(Cc1ccccc1)CC(O)COCc1ccccc1 (configuration not stated)	23.1 µM [falling, partial curve]	–
O=C(NC1CCCCCCC1)C1CCN(c2nc3ccccc3o2)CC1	32.6 µM [rising, single point]	–
CC(C)n1nc(C(=O)Nc2ccc(-n3cnnn3)cc2)c2ccccc2c1=O	16.4 µM [rising, single point]	–
O=C(CS(=O)(=O)c1ccccc1)Nc1ncc([N+](=O)[O-])s1	11.2 µM [falling, partial curve]	–
O=C(COC(=O)c1ccc(O)cc1)NCCc1c[nH]c2ccccc12	–	20.6 µM [falling, partial curve, poor fit]
COC(=O)C(C)NC(=O)C1CCCN1C(=O)CNC(=O)OCc1ccccc1 (stereo not drawn) (Cbz-Gly-Pro-Ala-OMe; configuration not given here)	11.2 µM [rising, partial curve]	–
Oc1ccc2ccccc2c1N=Nc1nccs1	3.16 µM [rising, full curve]	–
CCOC(=O)c1cnn(-c2ccccc2)c1-n1cccc1C(=O)C(=O)Nc1ccccc1	35.5 µM [falling, single point]	–
COc1cccc(C=Nc2ccccc2C#N)c1O	23.1 µM [rising, partial curve, poor fit]	–
CCc1cccc(C)c1NC(=O)COC(=O)c1cc([N+](=O)[O-])ccc1N1CCOCC1	14.6 µM [rising, partial curve, poor fit]	–
COc1ccc(NC(=O)Cn2nnc(C(=O)NCCc3ccc(OC)c(OC)c3)c2N)c(OC)c1	5.01 µM [rising, full curve, poor fit]	–

Structure (SMILES)	AC50 [1]	AC50 [2]
CCn1nc(NS(=O)(=O)c2ccccc2)c2cc3ccc(C)cc3nc21	11.2 µM [rising, single point]	–
N#CC(c1ccccc1)N(CCCCl)C(=O)c1ccc(Br)cc1 (configuration not stated)	18.4 µM [falling, single point]	–
COc1ccc(-c2noc(CSc3nc4ccccc4c(=O)n3-c3ccccc3)n2)cc1	29.1 µM [falling, single point]	–
Cc1cccc(-c2cnn(-c3ccccc3)c2N)c1	12.6 µM [falling, single point]	–
Cn1c(=O)oc2cc(S(=O)(=O)N3CCC(C(=O)N4CCc5ccccc5C4)CC3)ccc21	29.1 µM [rising, single point]	–
O=C(CSc1cccc[n+]1[O-])CSc1cccc[n+]1[O-]	0.631 µM [falling, partial curve, poor fit]	0.631 µM [falling, partial curve, poor fit]
Cc1cccc(Cn2ncc(Cl)c(Cl)c2=O)c1	8.91 µM [falling, partial curve]	–
CCCC(=O)N1CCN(c2nc3ccccc3s2)CC1	3.55 µM [rising, partial curve, poor fit]	–
Cc1cc(C)c(-c2csc(NC(=O)/C=C/c3cccs3)n2)c(C)c1	7.31 µM [falling, partial curve]	18.4 µM [rising, partial curve]
O=C(Nc1ccc(NC(=O)c2ccc3c(c2)OCCO3)cc1)c1ccccc1	22.4 µM [falling, single point]	–
CC(C)c1nc2cc(C(=O)N(C)C3CCOCC3)ccc2o1	8.91 µM [rising, partial curve]	–
Cc1ccc(N2C(=O)C3N=NN(CC(=O)N4N=C(c5cccc6ccccc56)CC4c4ccccc4)C3C2=O)cc1 (configuration not stated)	20.6 µM [rising, single point]	–
Cc1ccc(S(=O)(=O)c2cc3c(=O)n4ccccc4nc3n(C)c2=N)cc1	7.31 µM [falling, single point]	–
Cc1ccc(S(=O)(=O)N(C)CCCC(=O)Nc2cccc3ccccc23)cc1	–	14.6 µM [falling, partial curve, poor fit]
CCc1ccc(-c2nc(CSCC(=O)N3CCN(c4ccccn4)CC3)c(C)o2)cc1	35.5 µM [falling, single point]	–
CCS(=O)(=O)N1CCC2(CC1)OCCN2S(=O)(=O)c1ccc(OC)cc1	0.291 µM [falling, full curve]	–
COC(=O)c1nn(-c2ccccc2)c(-c2ccccc2)c1C(=O)c1ccccc1	5.01 µM [falling, partial curve, poor fit]	–
COC(=O)C(CC(C)C)NC(=O)/C=C/c1ccccc1Cl (configuration not stated)	1.64 µM [rising, partial curve, poor fit]	–
CCc1ccc(-n2c(O)c(C=NCCN(CC)CC)c(=O)[nH]c2=O)cc1	0.398 µM [rising, full curve, poor fit]	–
O=C(Nc1cc(C(F)(F)F)ccc1N1CCOCC1)c1cn2ccccc2n1	1.3 µM [falling, full curve]	–
CCC(=O)c1ccc(OCCSc2ncccn2)cc1	4.11 µM [rising, single point]	–

Structure (SMILES)	AC50 [1]	AC50 [2]
CCOc1ccc2c(c1)C(C)=CC(C)(C)N2S(=O)(=O)c1ccc(F)cc1	25.1 µM [rising, single point]	35.5 µM [falling, single point]
O=C(Cc1ccc(-n2c(=O)[nH]c3ccccc3c2=O)cc1)N1CCN(c2cccc(Cl)c2)CC1	22.4 µM [falling, single point]	–
CCOc1ccc(NC(=O)CN2C(=O)S/C(=C/c3cccn3C)C2=O)cc1	35.5 µM [falling, single point]	–
C=CCn1c(N2CCN(c3ccc(OC)cc3)CC2)nc2c1c(=O)n(C)c(=O)n2C	1.12 µM [falling, partial curve, poor fit]	–
COc1cc(OC)c2c(c1O)OC(c1ccccc1)CC2=O (configuration not stated)	35.5 µM [rising, single point]	–
Cc1ccccc1OCCOC(=O)c1c(-c2ccccc2)noc1C	17.8 µM [rising, partial curve]	25.1 µM [falling, single point]
CC(=O)Nc1ccc2nc(C3CCCCC3)[nH]c2c1	14.1 µM [falling, partial curve, poor fit]	–
O=C(Nc1nccs1)c1cccc2ccccc12	25.1 µM [falling, single point]	–
O=C(Nc1cccc(Cl)c1N1CCCC1)c1cc2ccccc2o1	8.2 µM [rising, partial curve, poor fit]	–
Cc1nn(-c2ccc([N+](=O)[O-])cc2)c2c1C(c1cccc(Br)c1)N1C(=N2)C(=O)Nc2ccccc21 (configuration not stated)	10.3 µM [rising, partial curve]	–
N/C(Cc1ccc(Cl)cc1Cl)=N\OC(=O)Cc1ccccc1	25.9 µM [rising, single point]	–
Cc1ccc(-c2noc(CSc3nc(N)cc(N)n3)n2)cc1	18.4 µM [rising, partial curve, poor fit]	–
CC(=O)Nc1nonc1NC(=O)CSc1nc2ccccc2o1	–	14.1 µM [falling, single point]
C#CCn1cc(/C=N/Nc2nc3ccccc3[nH]2)c2ccccc21	16.4 µM [falling, single point]	–
COC(=O)c1ccc(Cl)c(NC(=O)CN(c2ccccc2)S(=O)(=O)c2ccc(OC)cc2)c1	0.92 µM [falling, full curve]	18.4 µM [rising, partial curve]
Cc1ccc(C(=O)Nc2scc(-c3ccccc3)c2C(=O)O)o1	35.5 µM [falling, single point]	–
COc1ccc(CCN(C)CC(O)COC(c2ccc(F)cc2)c2ccc(F)cc2)cc1OC (configuration not stated)	35.5 µM [falling, single point]	–
NS(=O)(=O)c1ccc(CNC(=O)C2CCCCC2)cc1	6.51 µM [falling, single point]	–
O=C1CC(NNc2nc3ccccc3s2)C(=O)N1c1ccccc1 (configuration not stated)	7.94 µM [falling, partial curve, poor fit]	–
O=C(COc1ccccc1-c1ccccc1)N/N=C/c1cccnc1	7.94 µM [falling, partial curve]	–

Molecules from the list above with a thiophene ring, fused or not (two):
Structure (SMILES)	AC50 [1]	AC50 [2]
Cc1cc(C)c(-c2csc(NC(=O)/C=C/c3cccs3)n2)c(C)c1	7.31 µM [falling, partial curve]	18.4 µM [rising, partial curve]
Cc1ccc(C(=O)Nc2scc(-c3ccccc3)c2C(=O)O)o1	35.5 µM [falling, single point]	–
